In US11697639B2, “Quaternary ammonium salt compound, preparation method therefor and use thereof” (WEST CHINA HOSPITAL, SICHUAN UNIVERSITY, priority 2018, dated 2023):
Where a name gives a salt, the structure may show the parent alone.

Tested on: back skin of rat
Test: Local anesthetic effect by subcutaneous infiltration in rat back skin (Von Frey 100 g)
Assay type: in vivo
Conditions: 0.5 mL in saline, compound 6 mmol/L, bupivacaine 23 mmol/L, 10 rats per compound
Protocol: After the back of rat weighing 250-300 g was shaved and disinfected, a circle with a diameter of about 1.5 cm was drawn on the side of the exposed back, and the circle is divided into 6 equal parts. […] Among the Von Frey fiber yarns, the one with a strength of 100 g was bound to the needle for local skin stimulation. One minute After the drug was injected, the above method was used to stimulate in 6 divisions. […] If back skin contraction was observed, the local anesthetic effect was considered as loss. […] Each compound was tested with 10 rats.

`CCN(CC)CC(=O)Nc1c(C)cccc1C` [Lidocaine hydrochloride, reference compound] was tested, and the “Lasting time of local anesthesia (Median)” value was 4 h.
